Results as given in PubChem BioAssay AID485349 (National Center for Advancing Translational Sciences (NCATS), 2010).
Screen size: about 320,000 compounds; about 620 (0.19%) were called active. Inconclusive results, whose numbers are uncertain, are shown with a selection of clear calls. Calls follow the shape of the dose curve; as a rule, active = well fitted activation curve with a large enough effect; inconclusive = small, poorly fitted or top-dose-only effect; inactive = no such curve, though single readings can be large or run the other way. Potencies beside an inconclusive call are fits to weak or partial responses and may not hold up.

Experiment: qHTS Assay for Identifying a Potential Treatment of Ataxia-Telangiectasia; also: nearly all actives have a fitted effect of over 45% in size
Settings: […] A-T fibroblasts, KAP-1 phosphorylation AlphaLISA, neocarzinostatin DNA damage 30 min before lysis; series mostly up to 57.5 µM
Procedure, shortened: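 ATM-like activity read as KAP-1 phosphorylation via AlphaLISA donor/acceptor antibody pairs after lysis and 6 hr at 25C. Cells were ATM-null patient fibroblasts ([…], hTERT), dosed 60 min, then exposed to the DSB inducer NCS for 30 min.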
Potency is read from the fitted curve at half-maximal effect.

SMILES	Potency
COc1ccc(COCC(O)CN2CCN(S(=O)(=O)c3ccc(C(C)C)cc3)CC2)cc1 (centres undefined)	inconclusive: 0.708 µM [activator, full curve, poor fit]
COc1ccc2sc(-c3ccc(N(C)C)cc3)c(C#Cc3cncn3C)c2c1	active: 31.6 µM
Cc1ccc(NC(=O)CN(C)Cc2cc(=O)n3ccsc3n2)cc1	active: 12.6 µM
CN1Cc2c(N3CCOCC3)nc3sc(C(=O)c4ccccc4)c(N)c3c2CC1(C)C	inconclusive: 44.7 µM [activator, partial curve, poor fit]
O=c1o[nH]c(-c2ccccc2)c1N=Nc1c(F)cccc1Cl	inactive
CCN(CC)CCCNC(=O)CCC(=O)Nc1ccc2nc(N3CCCCC3)cc(C)c2c1	inactive
CCc1ccc(C(c2ccc(CC)cc2)C(Cl)Cl)cc1	inconclusive: 31.6 µM [activator, partial curve]
COC(=O)c1ccc(/C=C/C(=O)c2ccc(OC)c(OC)c2)cc1	inconclusive: 39.8 µM [activator, single point]
Cc1ccccc1NC(=O)Cc1nc(COC(=O)c2cc(Br)ccc2O)cs1	inactive
CCOC(=O)COc1ccc(Br)cc1/C=C/c1[nH]c(=O)[nH]c(=O)c1[N+](=O)[O-]	inconclusive: 39.8 µM [activator, partial curve]
Cc1nn(CC(=O)N(C)Cc2ccc(F)cc2)c(C)c1[N+](=O)[O-]	inconclusive: 8.91 µM [activator, partial curve]
C/C(=N\NC(=S)NCc1ccccc1)c1ccc(Br)cc1	inconclusive: 3.55 µM [activator, partial curve]
COc1cc(NC2CCCCC2O)c2nc(-c3ccc(Cl)cc3)ccc2c1 (centres undefined)	inconclusive: 10 µM [activator, partial curve, poor fit]
O=C(Cn1nnc(-c2ccc(F)cc2)n1)OCC(=O)c1ccccc1	inconclusive: 3.16 µM [activator, partial curve]
CC(C)c1ccc(S(=O)(=O)/N=C2/C=C(Sc3ncn[nH]3)C(=O)c3ccccc32)cc1	inconclusive: 3.55 µM [activator, partial curve]
CCOC(=O)C1CCN(C(=O)c2ccc(NS(=O)(=O)c3ccc(F)cc3C)cc2)CC1	inconclusive: 2.82 µM [activator, partial curve]
Cc1cccc(S(=O)(=O)N2CCCc3ccccc32)c1	inconclusive: 0.631 µM [activator, full curve, poor fit]
O=C(OCC(=O)N1CCCc2ccccc21)c1ccccc1[N+](=O)[O-]	inactive
NC(=S)NNC(=O)COc1ccccc1O	active: 15.8 µM
Cn1c(-c2ccc3c(c2)OCO3)cc(=O)c2ccccc21	inactive
CCc1ccc(C2c3[nH]c4ccccc4c3CCN2C(=O)c2cc[n+]([O-])cc2)cc1 (centres undefined)	inconclusive: 1.58 µM [activator, partial curve, poor fit]
Cc1ccc(S(=O)(=O)Oc2ccc(/C=C(/NC(=O)c3ccccc3)C(=O)Nc3ccccc3)cc2)cc1	inactive
COc1ccc2c(c1OC)C(=O)N(c1nccs1)C2	inconclusive: 39.8 µM [activator, single point]

SMILES	Potency
CCCOc1ccc(Cc2c(O)nc(SC)[nH]c2=O)cc1C	inconclusive: 20 µM [activator, partial curve]
Nc1nnc(SCC(=O)N2CCCCC2)s1	inconclusive: 7.08 µM [activator, single point]
CCOc1ccccc1-c1cc(C(=O)Nc2ccc(C(=O)O)cc2)c2ccccc2n1	inconclusive: 7.08 µM [activator, single point]
Cc1nn(Cc2c(Cl)cccc2Cl)c(C)c1NC(=O)c1cn(-c2ccccc2)nc1-c1ccccc1	inconclusive: 3.55 µM [activator, partial curve, poor fit]
CCNC(=S)N(CCc1c(C)[nH]c2ccc(Cl)cc12)Cc1cccnc1	inconclusive: 0.631 µM [activator, full curve, poor fit]
CCN=c1scc(C)n1/N=C/c1cc(Br)c(O)c(Br)c1	inactive
COc1ccccc1NC(=S)N1CC(C)(C)C1=O	active: 5.62 µM
CCn1c(SCC(=O)Nc2cc(C)on2)nc2sc3c(c2c1=O)CCCC3	inactive
C=CCn1c(COc2ccc(Cl)cc2)nnc1SCC(=O)NCC(=O)OCC	inconclusive: 3.16 µM [activator, single point]
COc1cc(S(=O)(=O)N(Cc2ccc(C)cc2)C2CCCCC2)ccc1-n1cnnn1	inconclusive: 3.16 µM [activator, partial curve]
CCN(C(=O)C1=COCCO1)c1nc2c(C)cccc2s1	inactive
O=C(OCc1c(Cl)nc2sccn12)c1cc2c(s1)CCCC2	inactive
CC(C)Oc1cc(O)c2c(=O)c(-c3ccc(O)cc3)coc2c1	inconclusive: 28.2 µM [activator, single point]
CN1C(C(=O)Nc2ccc(OC(F)(F)F)cc2)=CC(c2cccs2)=NS1(=O)=O	inactive
N=c1c2c(ncn1CCCO)Oc1c(ccc3ccccc13)C2c1ccccc1 (centres undefined)	inconclusive: 39.8 µM [activator, partial curve, poor fit]
CCOc1cc(C2c3c(n[nH]c3C)C(=O)N2c2ccc(Br)cc2)ccc1O (centres undefined)	inactive
COc1ccc(OCc2nnc3n2N=C(c2ccccc2)C(CC(=O)O)S3)cc1 (centres undefined)	inactive
CC(C)OC(=O)NC(C)(C)COC(=O)Nc1cccc(Cl)c1	inactive
C[C@@H]1CN([C@@H](C)CO)C(=O)c2cccc(NC(=O)Nc3ccc4c(c3)OCO4)c2O[C@H]1CN(C)S(=O)(=O)c1cn(C)cn1	inconclusive: 3.98 µM [activator, single point]
O=C(CSc1nnc(NC(=O)c2ccc(F)cc2F)s1)NC1CCCC1	inactive
O=C(COC(=O)c1cccc(S(=O)(=O)N2CCCC2)c1)Nc1ccccc1C(F)(F)F	inactive
COC(=O)Nc1ccc2c(c1)N(C(=O)CCN1CCN3CCCC3C1)c1ccccc1CC2 (centres undefined)	inconclusive: 1.12 µM [activator, full curve, poor fit]
O=C(CN1CCN(C(=O)C2CCCO2)CC1)Nc1cc(C(F)(F)F)ccc1Cl (centres undefined)	inactive

SMILES	Potency
O=C(Nc1ncc(Cc2ccc(C(F)(F)F)cc2)s1)c1ccc(-c2cccc([N+](=O)[O-])c2)o1	inactive
COc1cc(NC(=O)c2cc3c(=O)n(C)c4ccccc4c3n2C)cc(OC)c1OC	inactive
CCN(CC(=O)Nc1cc(Cl)ccc1Cl)C(=O)c1ccc(-n2cccn2)cc1	inactive
CCCCNc1c(-c2ccc(SC3CCCCC3)cc2)nc2cnccn12	inconclusive: 15.8 µM [activator, partial curve]
Cc1ccc(O)c(C(=O)/C=C/c2ccc3c(c2)OCCCO3)c1	active: 15.8 µM
CN(C)CC(CCC(CN(C)C)C(=O)c1ccccc1)C(=O)c1ccccc1 (centres undefined)	inconclusive: 4.47 µM [activator, single point]
CCOC(=O)NC(C(Cl)(Cl)Cl)S(=O)(=O)c1ccccc1 (centres undefined)	inconclusive: 3.55 µM [activator, partial curve, poor fit]
O=C1COc2ccc(C(=O)COC(=O)c3cc(S(=O)(=O)NCc4ccccc4)ccc3O)cc2N1	inconclusive: 39.8 µM [activator, partial curve, poor fit]
CCC[n+]1c2ccccc2cc2ccccc21	active: 39.8 µM
CCOc1ccc2[nH]c(C(=O)N/N=C/c3cc(OC)c(OC)c(OC)c3)cc2c1	inconclusive: 3.98 µM [activator, partial curve, poor fit]
FC(F)(F)c1cccnc1Oc1ccc(C2=NCCS2)cc1	inconclusive: 12.6 µM [activator, partial curve]
C/C=C\C=C\C(=O)N1CC2(CC(c3cccc(NC(=O)/C(C)=C\C)c3)=NO2)C[C@H]1C(N)=O (some centres undefined)	active: 25.1 µM
COc1ccc(-c2noc(CCC(=O)O)n2)cc1	inconclusive: 0.631 µM [activator, partial curve, poor fit]
Fc1ccccc1CN1CCC(Cc2ccccc2)CC1	inconclusive: 39.8 µM [activator, single point]
NS(=O)(=O)c1ccc(NNC(=O)c2sccc2Cl)cc1	inconclusive: 3.16 µM [activator, partial curve]
O=C(N/N=C/c1ccccc1C(F)(F)F)c1ccc(O)cc1	inconclusive: 8.91 µM [activator, single point]
Cc1ccc2c(CN(C)Cc3cccc(Cl)c3)cc(=O)oc2c1C	inconclusive: 0.631 µM [activator, full curve, poor fit]
COC(=O)c1c(NC(=O)C(C)(C)C)sc2c1C(C(=O)OC)CC2 (centres undefined)	inconclusive: 0.708 µM [activator, partial curve, poor fit]
CC(C)(C)OC(=O)NCc1ccc(NC(=O)c2nc[nH]c2C(=O)NCCNC(=O)c2[nH]cnc2C(=O)Nc2ccc(CNC(=O)OC(C)(C)C)cc2)cc1	inactive
COCCN(Cc1cc2cc3c(cc2nc1Cl)OCO3)C(=O)c1cccc(C)c1	inconclusive: 0.631 µM [activator, full curve, poor fit]
O=C(CCCn1nnnc1CN1CCOCC1)N1CCC(c2ccc(F)cc2)C1 (centres undefined)	inconclusive: 2.82 µM [activator, partial curve, poor fit]
O=C(c1cccc(F)c1F)N1CCCc2ccccc21	inconclusive: 10 µM [activator, partial curve]
CCCCCCN(C(=O)CCCCCN1C(=O)NC(c2ccc(C(C)(C)C)cc2)C(C(=O)OCc2ccccc2)=C1C)C(C(=O)NCCCC)c1ccc(OCC(=O)OC)c(C(=O)OC)c1 (centres undefined)	inconclusive: 39.8 µM [activator, single point]

Reprinted at random: 5 records from the list, in no set order.
SMILES	Potency
CCCCCCN(C(=O)CCCCCN1C(=O)NC(c2ccc(C(C)(C)C)cc2)C(C(=O)OCc2ccccc2)=C1C)C(C(=O)NCCCC)c1ccc(OCC(=O)OC)c(C(=O)OC)c1 (centres undefined)	inconclusive: 39.8 µM [activator, single point]
O=C1COc2ccc(C(=O)COC(=O)c3cc(S(=O)(=O)NCc4ccccc4)ccc3O)cc2N1	inconclusive: 39.8 µM [activator, partial curve, poor fit]
CN(C)CC(CCC(CN(C)C)C(=O)c1ccccc1)C(=O)c1ccccc1 (centres undefined)	inconclusive: 4.47 µM [activator, single point]
NS(=O)(=O)c1ccc(NNC(=O)c2sccc2Cl)cc1	inconclusive: 3.16 µM [activator, partial curve]
Cc1ccc2c(CN(C)Cc3cccc(Cl)c3)cc(=O)oc2c1C	inconclusive: 0.631 µM [activator, full curve, poor fit]
